In paper PMC2613885:
These are yes or no findings as the source states them, for the method shown. Binding seen in cells or lysates may run through a third protein. Some entries that bind do so weakly or less than the wild type. Tags and fused reporters may be left off the sequences shown.

Protein sequences, listed by entry. Tags and fused reporters are not part of them. Residues count along the entry.
UniProt O55005, residues 26-1651: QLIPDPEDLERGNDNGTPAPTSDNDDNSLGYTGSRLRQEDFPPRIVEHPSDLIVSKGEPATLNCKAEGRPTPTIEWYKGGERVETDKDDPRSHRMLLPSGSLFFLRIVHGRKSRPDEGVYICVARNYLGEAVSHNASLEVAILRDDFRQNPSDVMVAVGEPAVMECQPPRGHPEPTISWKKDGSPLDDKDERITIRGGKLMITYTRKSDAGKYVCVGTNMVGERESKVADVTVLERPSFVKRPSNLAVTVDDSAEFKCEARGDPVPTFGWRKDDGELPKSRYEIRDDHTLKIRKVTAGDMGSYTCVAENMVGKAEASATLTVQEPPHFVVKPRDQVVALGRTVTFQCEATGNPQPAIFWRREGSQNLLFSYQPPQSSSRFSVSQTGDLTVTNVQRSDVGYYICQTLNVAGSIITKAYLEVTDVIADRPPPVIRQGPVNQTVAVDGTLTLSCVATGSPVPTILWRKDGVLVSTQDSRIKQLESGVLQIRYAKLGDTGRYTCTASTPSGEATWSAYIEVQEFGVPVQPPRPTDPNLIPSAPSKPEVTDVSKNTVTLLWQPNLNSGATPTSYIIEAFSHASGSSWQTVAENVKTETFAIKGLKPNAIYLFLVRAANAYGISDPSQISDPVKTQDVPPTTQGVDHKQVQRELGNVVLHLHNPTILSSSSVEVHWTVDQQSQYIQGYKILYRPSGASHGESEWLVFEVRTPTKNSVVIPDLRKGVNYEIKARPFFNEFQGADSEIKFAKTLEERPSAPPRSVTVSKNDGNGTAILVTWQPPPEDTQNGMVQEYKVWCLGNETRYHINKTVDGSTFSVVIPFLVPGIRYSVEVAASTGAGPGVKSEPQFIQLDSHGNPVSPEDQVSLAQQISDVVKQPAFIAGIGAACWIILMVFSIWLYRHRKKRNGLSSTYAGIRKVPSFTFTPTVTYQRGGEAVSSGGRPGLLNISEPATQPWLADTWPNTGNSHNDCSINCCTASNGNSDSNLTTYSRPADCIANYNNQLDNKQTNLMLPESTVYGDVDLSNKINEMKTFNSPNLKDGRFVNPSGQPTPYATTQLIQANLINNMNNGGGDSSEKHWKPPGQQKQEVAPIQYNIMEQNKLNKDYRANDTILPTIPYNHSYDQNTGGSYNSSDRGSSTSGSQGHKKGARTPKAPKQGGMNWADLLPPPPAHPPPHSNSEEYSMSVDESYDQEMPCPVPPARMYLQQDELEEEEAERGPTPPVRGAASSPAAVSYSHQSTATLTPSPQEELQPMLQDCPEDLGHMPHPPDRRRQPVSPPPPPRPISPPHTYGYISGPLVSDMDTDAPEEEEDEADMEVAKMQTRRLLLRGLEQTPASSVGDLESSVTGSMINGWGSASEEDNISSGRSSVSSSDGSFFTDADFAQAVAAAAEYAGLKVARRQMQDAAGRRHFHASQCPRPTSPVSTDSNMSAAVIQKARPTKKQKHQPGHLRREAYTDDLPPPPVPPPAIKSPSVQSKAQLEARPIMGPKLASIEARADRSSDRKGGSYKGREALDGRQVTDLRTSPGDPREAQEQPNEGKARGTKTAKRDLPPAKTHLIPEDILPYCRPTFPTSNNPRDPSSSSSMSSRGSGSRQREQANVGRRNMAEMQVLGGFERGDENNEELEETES

Target: T1, V5-tagged human Robo4 (human) (UniProt Q8WZ75)
T1 sequence: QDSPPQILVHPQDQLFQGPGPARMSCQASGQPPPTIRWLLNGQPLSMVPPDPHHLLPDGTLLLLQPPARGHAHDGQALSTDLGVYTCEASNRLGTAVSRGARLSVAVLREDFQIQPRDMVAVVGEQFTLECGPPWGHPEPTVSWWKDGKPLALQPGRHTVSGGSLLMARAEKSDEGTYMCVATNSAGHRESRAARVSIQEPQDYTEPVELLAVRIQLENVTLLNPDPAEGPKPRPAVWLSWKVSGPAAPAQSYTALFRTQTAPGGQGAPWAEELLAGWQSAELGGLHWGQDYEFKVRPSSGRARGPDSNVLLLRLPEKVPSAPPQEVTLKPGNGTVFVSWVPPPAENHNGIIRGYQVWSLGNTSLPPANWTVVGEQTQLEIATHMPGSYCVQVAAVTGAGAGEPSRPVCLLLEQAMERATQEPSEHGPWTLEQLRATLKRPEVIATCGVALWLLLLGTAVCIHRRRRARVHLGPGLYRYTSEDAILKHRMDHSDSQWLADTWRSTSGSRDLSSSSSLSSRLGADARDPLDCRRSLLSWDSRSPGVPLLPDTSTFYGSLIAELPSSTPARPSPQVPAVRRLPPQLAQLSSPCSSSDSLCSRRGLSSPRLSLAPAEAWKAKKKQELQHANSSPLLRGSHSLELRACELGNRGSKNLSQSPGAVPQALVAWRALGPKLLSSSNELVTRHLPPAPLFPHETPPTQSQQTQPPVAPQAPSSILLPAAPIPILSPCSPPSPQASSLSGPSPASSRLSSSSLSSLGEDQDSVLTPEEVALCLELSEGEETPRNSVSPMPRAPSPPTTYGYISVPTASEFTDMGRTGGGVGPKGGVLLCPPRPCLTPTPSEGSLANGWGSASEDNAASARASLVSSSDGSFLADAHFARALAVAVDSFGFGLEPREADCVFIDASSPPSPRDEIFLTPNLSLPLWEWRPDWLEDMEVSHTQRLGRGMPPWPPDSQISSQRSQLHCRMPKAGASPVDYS
Test: co-IP; HA-rat Robo1 with V5-human Robo4 (IP V5, blot HA) or with mouse Robo4 (IP HA, blot mouse Robo4 antibody), transfected alone or together in HEK293T; RIPA lysates

- binding: binds
Substance: HA-tagged rat Robo1 (from UniProt O55005 26-1651) (receptor)
